Measurements taken from the supplement of paper PMC12819154, “High-throughput peptide-centric local stability assay extends protein–ligand identification to membrane proteins, tissues and bacteria” (Nature Structural & Molecular Biology, 2025).
The other results are listed elsewhere or left out. Most entries show no effect beyond the scatter of the controls.

The chains behind the UniProt entries cited, without tags or fusion partners. Where a name states a change or a piece, a line headed by the entry shows the natural chain unless it says otherwise.
UniProt Q8BN78: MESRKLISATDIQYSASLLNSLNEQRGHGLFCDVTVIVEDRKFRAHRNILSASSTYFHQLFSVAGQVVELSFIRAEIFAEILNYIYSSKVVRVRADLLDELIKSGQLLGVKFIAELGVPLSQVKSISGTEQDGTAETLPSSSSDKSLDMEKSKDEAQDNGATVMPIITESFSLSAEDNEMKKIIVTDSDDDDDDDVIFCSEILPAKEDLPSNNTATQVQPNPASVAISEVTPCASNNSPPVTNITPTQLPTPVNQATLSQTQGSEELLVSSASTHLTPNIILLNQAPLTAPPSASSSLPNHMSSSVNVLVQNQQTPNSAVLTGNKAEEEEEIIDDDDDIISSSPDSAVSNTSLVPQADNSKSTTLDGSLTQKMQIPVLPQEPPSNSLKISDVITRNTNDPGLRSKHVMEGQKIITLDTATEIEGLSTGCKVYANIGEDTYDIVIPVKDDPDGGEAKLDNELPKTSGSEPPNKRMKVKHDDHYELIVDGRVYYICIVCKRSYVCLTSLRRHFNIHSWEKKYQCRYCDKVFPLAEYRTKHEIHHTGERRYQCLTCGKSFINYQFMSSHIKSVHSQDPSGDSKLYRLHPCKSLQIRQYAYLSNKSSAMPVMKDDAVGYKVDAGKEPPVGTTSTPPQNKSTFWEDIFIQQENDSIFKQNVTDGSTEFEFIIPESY
UniProt Q8BIX3: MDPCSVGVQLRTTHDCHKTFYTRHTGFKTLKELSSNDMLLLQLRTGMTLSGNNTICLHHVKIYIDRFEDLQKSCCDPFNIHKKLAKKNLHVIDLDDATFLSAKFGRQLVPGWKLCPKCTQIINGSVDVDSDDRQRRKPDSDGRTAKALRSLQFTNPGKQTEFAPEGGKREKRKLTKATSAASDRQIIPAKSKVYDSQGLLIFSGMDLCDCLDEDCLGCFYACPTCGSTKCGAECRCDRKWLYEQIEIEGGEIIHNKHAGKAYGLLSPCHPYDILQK
UniProt Q8BKW4: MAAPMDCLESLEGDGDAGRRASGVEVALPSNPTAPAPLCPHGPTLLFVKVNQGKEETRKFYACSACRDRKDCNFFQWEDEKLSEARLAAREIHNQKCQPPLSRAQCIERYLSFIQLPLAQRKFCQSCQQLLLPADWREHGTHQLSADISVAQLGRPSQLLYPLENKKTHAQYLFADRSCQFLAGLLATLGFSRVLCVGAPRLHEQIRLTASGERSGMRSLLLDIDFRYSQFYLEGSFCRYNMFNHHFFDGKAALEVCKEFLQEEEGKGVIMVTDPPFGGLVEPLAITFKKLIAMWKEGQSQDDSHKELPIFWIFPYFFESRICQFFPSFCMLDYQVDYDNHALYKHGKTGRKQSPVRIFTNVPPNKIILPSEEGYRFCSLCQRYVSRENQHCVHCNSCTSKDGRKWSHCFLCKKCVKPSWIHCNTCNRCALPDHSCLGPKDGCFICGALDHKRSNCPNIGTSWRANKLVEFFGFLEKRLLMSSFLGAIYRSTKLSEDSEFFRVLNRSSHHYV
UniProt Q8BMK4: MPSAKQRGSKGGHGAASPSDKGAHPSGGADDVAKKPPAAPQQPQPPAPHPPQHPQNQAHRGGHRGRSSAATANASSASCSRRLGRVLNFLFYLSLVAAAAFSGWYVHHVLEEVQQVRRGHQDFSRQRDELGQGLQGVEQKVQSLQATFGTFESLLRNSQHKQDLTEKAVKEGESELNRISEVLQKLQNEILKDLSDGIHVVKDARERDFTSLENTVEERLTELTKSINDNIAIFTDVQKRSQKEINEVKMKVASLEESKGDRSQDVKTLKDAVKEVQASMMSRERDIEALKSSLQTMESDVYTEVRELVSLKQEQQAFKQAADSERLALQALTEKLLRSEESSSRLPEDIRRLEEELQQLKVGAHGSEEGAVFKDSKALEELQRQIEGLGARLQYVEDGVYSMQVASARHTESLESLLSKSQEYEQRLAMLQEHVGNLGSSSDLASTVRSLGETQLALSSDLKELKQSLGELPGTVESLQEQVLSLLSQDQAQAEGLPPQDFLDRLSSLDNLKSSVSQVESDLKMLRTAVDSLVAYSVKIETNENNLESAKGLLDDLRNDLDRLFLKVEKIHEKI
UniProt Q8BP56: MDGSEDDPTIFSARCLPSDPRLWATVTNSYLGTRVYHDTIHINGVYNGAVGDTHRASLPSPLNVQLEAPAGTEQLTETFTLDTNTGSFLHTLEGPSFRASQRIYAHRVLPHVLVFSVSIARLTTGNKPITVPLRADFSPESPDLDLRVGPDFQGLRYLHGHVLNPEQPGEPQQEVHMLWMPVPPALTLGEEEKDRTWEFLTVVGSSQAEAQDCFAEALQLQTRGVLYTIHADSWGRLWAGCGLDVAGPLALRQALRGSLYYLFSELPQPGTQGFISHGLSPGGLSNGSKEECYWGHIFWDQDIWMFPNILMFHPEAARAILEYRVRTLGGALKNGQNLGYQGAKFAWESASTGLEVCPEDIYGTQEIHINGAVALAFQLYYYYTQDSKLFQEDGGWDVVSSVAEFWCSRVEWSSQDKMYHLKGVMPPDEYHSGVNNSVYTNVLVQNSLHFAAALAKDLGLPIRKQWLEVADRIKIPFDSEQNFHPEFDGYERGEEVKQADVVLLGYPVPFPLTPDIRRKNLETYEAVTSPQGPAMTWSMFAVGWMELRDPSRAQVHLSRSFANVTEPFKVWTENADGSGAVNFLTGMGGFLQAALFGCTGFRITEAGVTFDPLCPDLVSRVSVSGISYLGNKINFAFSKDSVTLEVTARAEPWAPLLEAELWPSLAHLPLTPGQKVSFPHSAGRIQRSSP
UniProt Q8BS95: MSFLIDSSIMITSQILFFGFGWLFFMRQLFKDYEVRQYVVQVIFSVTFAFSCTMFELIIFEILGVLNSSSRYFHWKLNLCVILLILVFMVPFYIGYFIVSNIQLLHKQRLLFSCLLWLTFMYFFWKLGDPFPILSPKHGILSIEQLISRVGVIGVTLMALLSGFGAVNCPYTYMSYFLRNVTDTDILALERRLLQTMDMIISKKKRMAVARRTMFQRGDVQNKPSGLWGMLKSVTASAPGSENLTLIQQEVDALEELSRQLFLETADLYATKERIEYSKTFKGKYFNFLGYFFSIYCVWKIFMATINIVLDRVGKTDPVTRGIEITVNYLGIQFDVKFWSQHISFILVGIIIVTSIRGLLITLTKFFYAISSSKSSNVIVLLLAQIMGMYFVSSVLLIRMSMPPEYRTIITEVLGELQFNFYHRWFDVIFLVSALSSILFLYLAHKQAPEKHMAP
UniProt Q8BPN8, whole entry: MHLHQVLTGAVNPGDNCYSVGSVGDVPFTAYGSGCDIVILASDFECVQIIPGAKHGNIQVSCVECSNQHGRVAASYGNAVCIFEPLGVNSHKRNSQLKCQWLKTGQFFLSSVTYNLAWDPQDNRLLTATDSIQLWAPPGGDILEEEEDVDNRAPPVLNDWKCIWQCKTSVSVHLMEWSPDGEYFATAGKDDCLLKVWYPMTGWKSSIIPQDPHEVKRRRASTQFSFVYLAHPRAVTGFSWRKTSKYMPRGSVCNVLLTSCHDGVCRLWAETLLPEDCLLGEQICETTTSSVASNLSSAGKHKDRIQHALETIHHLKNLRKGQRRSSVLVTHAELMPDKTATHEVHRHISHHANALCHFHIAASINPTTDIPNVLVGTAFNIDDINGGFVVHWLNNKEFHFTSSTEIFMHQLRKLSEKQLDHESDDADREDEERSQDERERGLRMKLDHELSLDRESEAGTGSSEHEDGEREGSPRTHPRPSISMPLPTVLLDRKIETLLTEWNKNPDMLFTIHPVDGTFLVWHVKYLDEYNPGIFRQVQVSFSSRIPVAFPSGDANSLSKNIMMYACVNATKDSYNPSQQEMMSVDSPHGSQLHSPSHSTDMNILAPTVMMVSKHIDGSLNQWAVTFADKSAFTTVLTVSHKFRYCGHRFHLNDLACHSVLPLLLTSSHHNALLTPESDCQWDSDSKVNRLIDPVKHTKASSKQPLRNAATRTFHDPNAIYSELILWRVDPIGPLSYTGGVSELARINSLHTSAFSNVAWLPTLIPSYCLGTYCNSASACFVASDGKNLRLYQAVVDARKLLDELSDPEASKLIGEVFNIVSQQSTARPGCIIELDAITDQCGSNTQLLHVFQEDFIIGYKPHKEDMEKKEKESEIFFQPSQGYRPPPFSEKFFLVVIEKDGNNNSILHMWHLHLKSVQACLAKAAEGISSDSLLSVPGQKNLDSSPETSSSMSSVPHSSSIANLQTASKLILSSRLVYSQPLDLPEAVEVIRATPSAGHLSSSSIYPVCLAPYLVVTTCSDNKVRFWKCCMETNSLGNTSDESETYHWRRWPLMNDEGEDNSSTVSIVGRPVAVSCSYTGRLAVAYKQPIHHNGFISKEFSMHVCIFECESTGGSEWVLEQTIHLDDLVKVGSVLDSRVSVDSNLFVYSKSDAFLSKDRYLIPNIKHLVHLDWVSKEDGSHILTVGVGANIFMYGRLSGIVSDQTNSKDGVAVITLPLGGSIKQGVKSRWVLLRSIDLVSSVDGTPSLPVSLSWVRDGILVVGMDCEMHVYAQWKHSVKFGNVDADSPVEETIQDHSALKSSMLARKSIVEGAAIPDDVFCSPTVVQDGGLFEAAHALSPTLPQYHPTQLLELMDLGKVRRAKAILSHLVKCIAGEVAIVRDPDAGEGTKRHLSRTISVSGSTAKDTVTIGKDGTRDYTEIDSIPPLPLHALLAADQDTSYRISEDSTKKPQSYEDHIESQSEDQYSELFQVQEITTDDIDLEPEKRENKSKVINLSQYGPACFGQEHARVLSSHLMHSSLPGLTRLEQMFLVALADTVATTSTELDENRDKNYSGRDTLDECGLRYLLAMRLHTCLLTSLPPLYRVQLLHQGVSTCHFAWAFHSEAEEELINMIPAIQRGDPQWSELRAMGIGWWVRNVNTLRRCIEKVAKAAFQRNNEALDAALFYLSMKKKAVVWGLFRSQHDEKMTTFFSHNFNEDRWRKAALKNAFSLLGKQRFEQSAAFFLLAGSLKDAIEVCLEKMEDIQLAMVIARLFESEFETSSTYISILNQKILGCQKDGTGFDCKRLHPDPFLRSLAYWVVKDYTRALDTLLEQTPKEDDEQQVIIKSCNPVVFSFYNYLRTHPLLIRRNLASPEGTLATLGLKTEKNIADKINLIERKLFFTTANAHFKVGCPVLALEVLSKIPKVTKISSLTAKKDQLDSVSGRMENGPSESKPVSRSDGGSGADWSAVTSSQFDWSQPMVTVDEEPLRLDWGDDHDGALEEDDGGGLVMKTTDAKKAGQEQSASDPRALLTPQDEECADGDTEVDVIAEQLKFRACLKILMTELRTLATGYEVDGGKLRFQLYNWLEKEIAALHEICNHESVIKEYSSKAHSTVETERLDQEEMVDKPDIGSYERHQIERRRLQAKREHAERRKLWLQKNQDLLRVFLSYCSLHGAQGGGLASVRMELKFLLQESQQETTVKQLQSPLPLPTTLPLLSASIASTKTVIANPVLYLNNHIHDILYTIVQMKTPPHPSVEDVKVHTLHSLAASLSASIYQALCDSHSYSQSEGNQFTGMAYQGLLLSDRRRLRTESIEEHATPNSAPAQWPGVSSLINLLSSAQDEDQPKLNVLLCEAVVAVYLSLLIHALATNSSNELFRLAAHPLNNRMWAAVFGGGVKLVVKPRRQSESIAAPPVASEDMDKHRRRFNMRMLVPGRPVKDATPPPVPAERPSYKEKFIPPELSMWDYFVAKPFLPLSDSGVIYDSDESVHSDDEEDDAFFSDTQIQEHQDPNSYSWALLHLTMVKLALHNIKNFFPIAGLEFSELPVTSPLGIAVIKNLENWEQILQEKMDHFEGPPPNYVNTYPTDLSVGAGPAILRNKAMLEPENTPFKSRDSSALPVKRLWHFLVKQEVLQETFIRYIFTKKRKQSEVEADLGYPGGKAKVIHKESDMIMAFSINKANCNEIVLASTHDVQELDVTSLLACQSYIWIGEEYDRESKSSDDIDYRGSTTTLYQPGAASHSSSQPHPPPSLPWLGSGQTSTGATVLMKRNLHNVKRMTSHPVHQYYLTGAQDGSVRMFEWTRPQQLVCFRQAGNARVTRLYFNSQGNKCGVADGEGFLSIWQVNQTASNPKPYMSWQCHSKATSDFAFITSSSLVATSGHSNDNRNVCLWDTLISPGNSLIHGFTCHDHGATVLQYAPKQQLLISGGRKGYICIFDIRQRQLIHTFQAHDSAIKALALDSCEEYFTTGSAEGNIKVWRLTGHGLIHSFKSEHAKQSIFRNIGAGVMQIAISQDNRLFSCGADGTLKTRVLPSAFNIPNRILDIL
UniProt Q8BRM2: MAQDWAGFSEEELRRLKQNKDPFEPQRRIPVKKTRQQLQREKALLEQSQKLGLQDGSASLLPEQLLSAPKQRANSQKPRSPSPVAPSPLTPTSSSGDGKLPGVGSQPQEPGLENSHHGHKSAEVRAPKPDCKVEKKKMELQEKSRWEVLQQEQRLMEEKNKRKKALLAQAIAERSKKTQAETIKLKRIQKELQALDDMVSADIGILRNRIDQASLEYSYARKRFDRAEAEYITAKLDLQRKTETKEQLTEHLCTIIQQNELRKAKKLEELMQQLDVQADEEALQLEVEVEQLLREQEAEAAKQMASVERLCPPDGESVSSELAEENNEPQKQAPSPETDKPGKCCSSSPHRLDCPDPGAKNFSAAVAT

These targets were tested with CN[C@@H]1C[C@H]2O[C@@](C)([C@@H]1OC)n1c3ccccc3c3c4c(c5c6ccccc6n2c5c31)C(=O)NC4 [staurosporine] (assay: log2 fold change of tryptic peptide abundance, ligand vs vehicle (limited proteolysis) (log2 ratio); higher = more trypsin-susceptible (destabilized)). Conditions: ligand concentration: 20 uM; sample: mouse liver crude lysate; replicate design: treated separately.

| Target | log2 fold change |
| --- | --- |
| UniProt Q8BN78 (peptide sequence: NTNDPGLR, peptide start residue: 396) | -0.229 |
| UniProt Q8BIX3 (peptide sequence: IYIDRFEDLQK, peptide start residue: 62) | 0.14 |
| UniProt Q8BKW4 (peptide sequence: KFYACSACR, peptide start residue: 59) | 0.162 |
| UniProt Q8BMK4 (peptide sequence: LALQALTEK, peptide start residue: 327) | -0.202 |
| UniProt Q8BP56 (peptide sequence: NGQNLGYQGAK, peptide start residue: 334) | 0.261 |
| UniProt Q8BS95 (peptide sequence: GDVQNKPSGLWGMLK, peptide start residue: 218) | -0.0828 |
| UniProt Q8BPN8 (peptide sequence: CIAGEVAIVRDPDAGEGTKR, peptide start residue: 1373) | -0.33 |
| UniProt Q8BRM2 (peptide sequence: LDCPDPGAK, peptide start residue: 352) | 0.296 |
| UniProt Q8BMZ5 (peptide sequence: DWPHAGRPAHELR, peptide start residue: 214) | -0.246 |
| UniProt Q8BTY1 (peptide sequence: ATLQAMDKR, peptide start residue: 406) | 0.247 |
| UniProt Q8BKY8 (peptide sequence: QGRPLFNPVASLK, peptide start residue: 370) | -0.292 |

Look-ups from the list.
Value for UniProt Q8BIX3 (peptide sequence: IYIDRFEDLQK, peptide start residue: 62) under log2 fold change: 0.14
Value for UniProt Q8BKW4 (peptide sequence: KFYACSACR, peptide start residue: 59) under log2 fold change: 0.162
